# Reference: patent US20190270997A1
# Sequences of proteins named here, by UniProt entry; tags and fusion partners are left off. A change or cut given only in a name is not applied to a line headed by its entry. A line that says so, or that is headed by a name, gives the form on record, which may keep a tag or linker. Residues count along the entry.
# UniProt O14686: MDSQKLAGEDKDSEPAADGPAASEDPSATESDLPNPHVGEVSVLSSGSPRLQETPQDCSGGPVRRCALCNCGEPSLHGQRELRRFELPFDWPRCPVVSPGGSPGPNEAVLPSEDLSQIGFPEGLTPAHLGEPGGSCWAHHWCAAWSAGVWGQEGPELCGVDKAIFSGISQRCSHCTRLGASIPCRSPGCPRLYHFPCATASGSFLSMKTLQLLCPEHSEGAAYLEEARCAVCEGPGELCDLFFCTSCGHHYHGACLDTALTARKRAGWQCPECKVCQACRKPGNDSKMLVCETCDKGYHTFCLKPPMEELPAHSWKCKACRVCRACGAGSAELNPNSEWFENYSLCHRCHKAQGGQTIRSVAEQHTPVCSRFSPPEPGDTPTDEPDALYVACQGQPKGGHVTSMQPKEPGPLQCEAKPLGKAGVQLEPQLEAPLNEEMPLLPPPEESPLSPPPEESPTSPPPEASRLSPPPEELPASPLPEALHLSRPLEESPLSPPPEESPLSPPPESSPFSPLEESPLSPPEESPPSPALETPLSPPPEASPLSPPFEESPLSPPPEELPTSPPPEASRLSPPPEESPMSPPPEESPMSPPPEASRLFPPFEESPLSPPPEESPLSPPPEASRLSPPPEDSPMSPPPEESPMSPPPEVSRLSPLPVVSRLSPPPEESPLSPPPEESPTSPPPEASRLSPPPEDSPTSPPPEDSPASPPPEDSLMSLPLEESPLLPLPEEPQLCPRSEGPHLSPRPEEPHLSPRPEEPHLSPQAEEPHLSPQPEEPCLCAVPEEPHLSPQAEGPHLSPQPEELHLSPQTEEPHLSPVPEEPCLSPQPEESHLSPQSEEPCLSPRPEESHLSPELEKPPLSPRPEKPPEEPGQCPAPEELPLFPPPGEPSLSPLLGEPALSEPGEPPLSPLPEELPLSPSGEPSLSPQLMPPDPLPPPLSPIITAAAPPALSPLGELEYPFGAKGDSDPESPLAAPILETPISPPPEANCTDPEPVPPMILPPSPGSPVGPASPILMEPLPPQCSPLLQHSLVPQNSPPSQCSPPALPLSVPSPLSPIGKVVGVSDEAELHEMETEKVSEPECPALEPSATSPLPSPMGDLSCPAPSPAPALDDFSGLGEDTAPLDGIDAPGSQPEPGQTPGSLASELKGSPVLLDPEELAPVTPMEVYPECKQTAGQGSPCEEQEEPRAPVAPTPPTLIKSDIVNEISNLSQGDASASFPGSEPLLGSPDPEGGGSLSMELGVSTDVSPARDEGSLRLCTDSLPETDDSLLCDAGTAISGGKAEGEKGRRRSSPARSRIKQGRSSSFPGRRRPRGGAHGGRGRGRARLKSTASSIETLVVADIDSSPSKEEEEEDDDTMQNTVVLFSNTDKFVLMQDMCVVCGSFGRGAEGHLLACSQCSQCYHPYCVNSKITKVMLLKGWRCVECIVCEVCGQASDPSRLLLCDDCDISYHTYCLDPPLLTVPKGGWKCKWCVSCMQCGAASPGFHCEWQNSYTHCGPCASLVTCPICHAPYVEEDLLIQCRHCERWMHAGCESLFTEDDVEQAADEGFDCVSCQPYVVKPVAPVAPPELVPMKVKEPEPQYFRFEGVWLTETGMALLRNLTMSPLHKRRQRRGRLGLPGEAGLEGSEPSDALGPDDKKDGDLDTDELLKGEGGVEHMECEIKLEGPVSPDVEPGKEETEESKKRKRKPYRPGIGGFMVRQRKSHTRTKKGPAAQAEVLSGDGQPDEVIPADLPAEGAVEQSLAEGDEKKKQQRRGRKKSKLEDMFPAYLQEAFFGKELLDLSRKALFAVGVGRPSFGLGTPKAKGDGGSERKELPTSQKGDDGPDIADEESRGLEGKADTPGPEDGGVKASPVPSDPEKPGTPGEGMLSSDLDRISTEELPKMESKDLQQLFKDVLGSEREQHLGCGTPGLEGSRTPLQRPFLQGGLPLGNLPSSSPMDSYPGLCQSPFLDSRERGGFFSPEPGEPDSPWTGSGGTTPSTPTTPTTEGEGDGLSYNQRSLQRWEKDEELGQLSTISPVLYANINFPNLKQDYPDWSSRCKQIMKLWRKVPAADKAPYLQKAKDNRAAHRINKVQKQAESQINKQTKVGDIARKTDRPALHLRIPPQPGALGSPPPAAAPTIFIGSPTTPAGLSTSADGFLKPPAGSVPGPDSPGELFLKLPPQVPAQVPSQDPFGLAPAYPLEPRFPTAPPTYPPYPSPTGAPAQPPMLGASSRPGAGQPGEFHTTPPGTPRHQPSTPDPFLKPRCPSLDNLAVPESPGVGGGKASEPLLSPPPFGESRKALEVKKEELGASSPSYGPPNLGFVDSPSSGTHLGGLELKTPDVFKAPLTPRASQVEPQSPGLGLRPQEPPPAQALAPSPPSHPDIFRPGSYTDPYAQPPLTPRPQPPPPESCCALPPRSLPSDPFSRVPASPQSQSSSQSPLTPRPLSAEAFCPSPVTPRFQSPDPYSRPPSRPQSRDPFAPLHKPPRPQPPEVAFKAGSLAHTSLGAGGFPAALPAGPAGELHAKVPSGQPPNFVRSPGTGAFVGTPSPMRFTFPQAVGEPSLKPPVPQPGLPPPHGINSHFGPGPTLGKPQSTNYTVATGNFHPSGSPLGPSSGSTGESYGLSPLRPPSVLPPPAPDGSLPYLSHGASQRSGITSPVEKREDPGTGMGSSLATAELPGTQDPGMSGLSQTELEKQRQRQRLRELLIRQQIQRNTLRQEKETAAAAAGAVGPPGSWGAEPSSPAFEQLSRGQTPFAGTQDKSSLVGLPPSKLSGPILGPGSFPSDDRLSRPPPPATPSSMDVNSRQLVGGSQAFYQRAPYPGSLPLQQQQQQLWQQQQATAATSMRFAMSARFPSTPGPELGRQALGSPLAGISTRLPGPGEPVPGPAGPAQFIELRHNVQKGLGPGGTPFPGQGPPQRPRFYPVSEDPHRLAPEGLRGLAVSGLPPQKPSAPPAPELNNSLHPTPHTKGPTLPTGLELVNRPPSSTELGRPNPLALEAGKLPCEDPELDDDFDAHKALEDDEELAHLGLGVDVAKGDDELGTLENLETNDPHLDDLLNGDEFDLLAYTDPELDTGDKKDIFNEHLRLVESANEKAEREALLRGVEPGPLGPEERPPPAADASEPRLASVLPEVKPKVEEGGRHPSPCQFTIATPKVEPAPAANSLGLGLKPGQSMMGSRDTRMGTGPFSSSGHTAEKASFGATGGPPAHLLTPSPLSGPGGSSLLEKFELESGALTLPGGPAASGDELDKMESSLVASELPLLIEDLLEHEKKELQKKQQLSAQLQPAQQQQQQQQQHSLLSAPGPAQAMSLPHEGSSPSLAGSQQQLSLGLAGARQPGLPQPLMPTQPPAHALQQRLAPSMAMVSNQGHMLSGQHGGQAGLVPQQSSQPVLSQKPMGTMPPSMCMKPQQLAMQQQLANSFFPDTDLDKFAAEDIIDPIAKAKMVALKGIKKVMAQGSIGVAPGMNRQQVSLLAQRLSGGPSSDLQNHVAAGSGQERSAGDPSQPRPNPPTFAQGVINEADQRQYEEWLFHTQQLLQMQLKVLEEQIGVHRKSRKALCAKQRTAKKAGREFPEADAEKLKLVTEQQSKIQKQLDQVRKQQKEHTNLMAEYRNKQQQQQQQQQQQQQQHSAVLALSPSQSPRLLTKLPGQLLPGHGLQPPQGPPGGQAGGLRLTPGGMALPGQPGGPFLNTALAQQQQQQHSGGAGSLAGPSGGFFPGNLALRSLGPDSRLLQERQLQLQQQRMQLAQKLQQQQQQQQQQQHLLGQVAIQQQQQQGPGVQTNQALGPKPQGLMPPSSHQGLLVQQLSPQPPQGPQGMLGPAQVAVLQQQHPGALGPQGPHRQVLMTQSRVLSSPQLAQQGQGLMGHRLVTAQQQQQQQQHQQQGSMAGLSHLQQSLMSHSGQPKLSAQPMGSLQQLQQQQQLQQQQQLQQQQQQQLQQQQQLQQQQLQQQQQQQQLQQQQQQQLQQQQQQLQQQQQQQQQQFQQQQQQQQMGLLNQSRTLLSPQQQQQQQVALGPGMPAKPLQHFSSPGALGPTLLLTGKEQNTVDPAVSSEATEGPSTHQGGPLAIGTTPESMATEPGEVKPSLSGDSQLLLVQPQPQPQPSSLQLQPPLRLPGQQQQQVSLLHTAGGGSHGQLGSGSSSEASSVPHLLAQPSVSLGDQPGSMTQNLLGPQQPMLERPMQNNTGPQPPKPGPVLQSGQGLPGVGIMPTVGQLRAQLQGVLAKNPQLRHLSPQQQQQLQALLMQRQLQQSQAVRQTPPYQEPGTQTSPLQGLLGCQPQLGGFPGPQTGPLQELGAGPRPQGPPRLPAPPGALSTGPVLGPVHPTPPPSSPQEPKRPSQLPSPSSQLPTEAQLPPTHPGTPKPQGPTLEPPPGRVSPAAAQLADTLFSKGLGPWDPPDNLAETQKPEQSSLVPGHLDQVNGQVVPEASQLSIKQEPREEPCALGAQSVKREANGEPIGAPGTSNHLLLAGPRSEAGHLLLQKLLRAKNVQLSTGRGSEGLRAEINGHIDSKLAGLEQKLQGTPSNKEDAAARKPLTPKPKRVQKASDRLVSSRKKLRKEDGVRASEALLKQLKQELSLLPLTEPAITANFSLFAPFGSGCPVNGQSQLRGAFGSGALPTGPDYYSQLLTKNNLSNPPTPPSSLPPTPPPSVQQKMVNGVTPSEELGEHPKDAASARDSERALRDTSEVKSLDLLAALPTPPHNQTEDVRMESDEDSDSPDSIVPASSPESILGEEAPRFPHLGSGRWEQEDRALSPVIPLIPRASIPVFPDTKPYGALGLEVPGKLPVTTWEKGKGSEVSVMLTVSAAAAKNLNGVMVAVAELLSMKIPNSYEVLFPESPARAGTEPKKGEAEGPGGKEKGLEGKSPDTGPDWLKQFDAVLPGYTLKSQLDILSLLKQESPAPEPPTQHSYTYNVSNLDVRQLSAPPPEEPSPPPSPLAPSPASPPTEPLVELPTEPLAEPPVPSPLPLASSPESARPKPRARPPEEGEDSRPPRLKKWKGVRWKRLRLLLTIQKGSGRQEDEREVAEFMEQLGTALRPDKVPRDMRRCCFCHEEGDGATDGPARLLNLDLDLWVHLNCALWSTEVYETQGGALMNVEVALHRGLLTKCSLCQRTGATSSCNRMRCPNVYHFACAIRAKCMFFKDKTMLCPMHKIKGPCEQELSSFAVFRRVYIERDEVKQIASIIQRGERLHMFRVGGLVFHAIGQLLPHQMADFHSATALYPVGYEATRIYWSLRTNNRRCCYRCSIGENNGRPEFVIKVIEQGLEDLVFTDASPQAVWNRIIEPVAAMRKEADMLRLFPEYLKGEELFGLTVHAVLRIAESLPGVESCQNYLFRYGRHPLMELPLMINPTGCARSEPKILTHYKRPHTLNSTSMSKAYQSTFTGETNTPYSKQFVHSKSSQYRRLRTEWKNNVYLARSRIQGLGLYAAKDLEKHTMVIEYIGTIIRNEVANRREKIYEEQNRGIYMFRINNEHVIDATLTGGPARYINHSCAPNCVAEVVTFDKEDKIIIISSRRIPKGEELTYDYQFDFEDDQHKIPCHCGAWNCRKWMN
# V5-tagged KMT2D fragment (1222-1819): residues 1222-1819 of O14686
# UniProt P31749: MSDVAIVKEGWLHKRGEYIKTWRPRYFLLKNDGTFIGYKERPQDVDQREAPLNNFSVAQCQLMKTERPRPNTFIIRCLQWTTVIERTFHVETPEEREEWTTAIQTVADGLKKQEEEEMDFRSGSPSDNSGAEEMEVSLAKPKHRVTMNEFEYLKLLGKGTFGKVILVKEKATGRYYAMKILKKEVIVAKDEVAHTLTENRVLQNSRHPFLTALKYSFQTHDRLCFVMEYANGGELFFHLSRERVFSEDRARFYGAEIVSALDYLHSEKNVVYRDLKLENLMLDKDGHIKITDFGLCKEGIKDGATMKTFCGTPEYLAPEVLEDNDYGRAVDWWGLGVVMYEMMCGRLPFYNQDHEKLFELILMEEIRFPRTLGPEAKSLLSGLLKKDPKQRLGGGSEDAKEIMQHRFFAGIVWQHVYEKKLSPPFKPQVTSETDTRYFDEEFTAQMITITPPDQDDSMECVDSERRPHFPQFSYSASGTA
# No constants are given. Whether binding was seen depends on the method and setting. Binding seen in cells or lysates may run through a third protein. Some entries that bind do so weakly or less than the wild type.
# What was measured:
# [1] = molecular target: HA-tagged KMT2D (full length, wild type) (UniProt O14686); assay: HA co-immunoprecipitation from transfected 293T cells, blotted with HA and V5 antibodies
# [2] = molecular target: HA-tagged KMT2D (full length, wild type) (UniProt O14686); assay: co-immunoprecipitation (title of the FIG. 4 legend)
# [3] = molecular target: V5-tagged KMT2D fragment (1222-1819) (UniProt O14686); assay: co-immunoprecipitation in 293T cells of YFP-AKT1 with V5-tagged KMT2D fragments
binding [1],binding [2],binding [3],Substance
binds,binds,–,V5-tagged AKT1 (from UniProt P31749 1-480) (enzyme)
–,–,binds,YFP-AKT1 (from UniProt P31749 1-480) (enzyme)
